In PubChem BioAssay AID624297 (National Center for Advancing Translational Sciences (NCATS), 2012):
Screen size: about 340,000 compounds; about 6,200 (1.8%) were called active. This list was built around the results that the source calls inconclusive (neither active nor inactive); the mix of calls is not that of the screen. The call rests on the fitted dose curve; in most records, active means well fitted activation curve with a large enough effect; inconclusive means small, poorly fitted or top-dose-only effect; inactive means no such curve, though single readings can be large or run the other way. Where the call is inconclusive, the potency comes from a doubtful curve fit.

test: A quantitative high throughput screen for small molecules that induce DNA re-replication in SW480 colon adenocarcinoma cells.; further: nearly all actives have a fitted effect of over 55% in size; on re-replication activation: % of control where 0% means no effect; conditions: Hoechst DNA content imaging, 48 h; re-replication activation: at 46.1 µM (top of the series) unless noted
In short: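 Cells (250 per well) received 23 nL compound or DMSO by pin tool and were kept 48 hr at 37 C, 5% CO2. Nuclei were then stained with Hoechst for 40 min and scanned for DNA content.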
Potency means the concentration at half of the fitted maximal effect.

| Structure (SMILES) | Potency | re-replication activation |
| --- | --- | --- |
| O=C(CCSCCC(=O)NN=Cc1cccc(Cl)c1)NN=Cc1cccc(Cl)c1 | inconclusive: 32.6 µM [activator, partial curve, poor fit] | – |
| CC1CCC(C(C)C)C(OC(=O)C[n+]2cc(-c3ccc(Cl)cc3)n3c2CCCCC3)C1 (centres undefined) | inconclusive: 29.1 µM [activator, single point] | – |
| Cc1ccc(C2=NC(C(F)(F)F)(C(F)(F)F)c3c(n(-c4ccc(F)cc4)c(=O)[nH]c3=O)N2)cc1 | inconclusive: 29.1 µM [activator, partial curve, poor fit] | – |
| NC(=O)N/N=C/c1c(F)c(F)c(F)c(F)c1F | inconclusive: 32.6 µM [activator, partial curve, poor fit] | – |
| COc1cc(/C=N/OCC(=O)Nc2ccc(OC(F)F)cc2)ccc1OCc1ccccc1 | inconclusive: 29.1 µM [activator, single point] | – |
| CCOC(=O)c1c(C)[nH]c(C)c1S(=O)(=O)N(C)Cc1ccco1 | – | inactive: -19.4% |
| CNC(=O)COC(=O)c1[nH]c(C)c(C(C)=O)c1C | – | inactive: 9.49% |
| COc1ccc(CCN2CC(C(=O)N(C)Cc3cccnc3)CC2=O)cc1OC (centres undefined) | – | inactive: -3.5% |
| Cc1ccc(C(=O)c2c3ccc(C(F)(F)F)cc3[n+]([O-])n2CCCN)cc1 | – | inactive: 17.3% |
| Cc1ccc(-c2[nH]c3ccccc3c2SCCN)cc1 | – | inactive: -1.38% |
| Cc1ccc(NC(=O)c2ccc3nc(N4CCOCC4)sc3c2)c(Cl)c1 | – | inactive: -2.64% |
| Clc1ccccc1C1SCC2Nc3ccccc3CN21 (centres undefined) | inconclusive: 18.4 µM [activator, single point] | – |
| CC(=O)c1cc2c(s1)-c1cc(F)ccc1OC2 | inconclusive: 16.4 µM [activator, partial curve, poor fit] | – |
| Cc1cc(C)c(C#N)c(SCC(=O)Nc2cc(C)on2)n1 | inconclusive: 18.4 µM [activator, partial curve, poor fit] | – |
| O=C1C(=O)N(Cc2ccccc2)C(=O)N1CCOc1ccccc1 | inconclusive: 16.4 µM [activator, single point] | – |
| COc1cc(C2Nc3ccc4ncccc4c3C3=C2C(=O)CC(C)(C)C3)cc(OC)c1O (centres undefined) | inconclusive: 20 µM [activator, single point] | – |
| O=c1ccc2cc(S(=O)(=O)Nc3ccc(Br)cc3)ccc2o1 | – | inactive: -2.22% |
| CC(C)(C)c1ccc(C(O)CCCN2CCC(C(O)(c3ccccc3)c3ccccc3)CC2)cc1 (centres undefined) | inactive | – |
| CCOC(=O)c1c(S(=O)(=O)Nc2ccc(F)cc2Cl)c(C)n(C)c1C | – | inactive: -16.9% |
| c1cnc(N2CCN(c3nc4ccccc4n4cnnc34)CC2)nc1 | – | inactive: -9.72% |
| COc1cccc(CN2CCNC(=O)C2CC(=O)NCCCC2CCCC2)c1OC (centres undefined) | – | inactive: -4.98% |
| C/C(=N/NC(=O)c1nnn(-c2nonc2N)c1COc1ccccc1)c1ccccc1Cl | inconclusive: 29.1 µM [activator, single point] | – |
| Fc1ccc(C(c2nnnn2Cc2cccs2)N2CCN(C3CCCC3)CC2)cc1 (centres undefined) | inconclusive: 23.1 µM [activator, partial curve, poor fit] | – |

Reformatted tab-delimited: part of the list above
Structure (SMILES)	Potency	re-replication activation
Clc1ccccc1C1SCC2Nc3ccccc3CN21 (centres undefined)	inconclusive: 18.4 µM [activator, single point]	–
CC(=O)c1cc2c(s1)-c1cc(F)ccc1OC2	inconclusive: 16.4 µM [activator, partial curve, poor fit]	–

Further structures

| Structure (SMILES) | Potency | re-replication activation |
| --- | --- | --- |
| Cc1ccc(Nc2ccccc2)nn1 | – | inactive: -2.01% |
| O=C(NCCc1ccccc1)C1CCN(S(=O)(=O)N2CCC3(CC2)OCCO3)CC1 | inconclusive: 13 µM [activator, partial curve] | – |
| Cc1ccc(S(=O)(=O)N2CCN(CC(=O)NC3CCCc4ccccc43)CC2)c(C)c1 (centres undefined) | inconclusive: 29.1 µM [activator, partial curve, poor fit] | – |
| CN(C)C(CNC(=O)c1ccc(-c2ccccc2)cc1)c1ccccc1 (centres undefined) | inconclusive: 29.1 µM [activator, single point] | – |
| CCOc1ccc(C(=O)CC(NCc2cccs2)C(=O)O)cc1 (centres undefined) | inconclusive: 4.11 µM [activator, full curve, poor fit] | – |
| O=C(N/N=C/c1nn(-c2ccccc2)cc1-c1ccccc1)c1ccncc1 | inconclusive: 23.1 µM [activator, single point] | – |
| CC(C)[C@H](NC(=O)c1ccccc1Cl)C(=O)Nc1nc(-c2ccccn2)cs1 | inconclusive: 23.1 µM [activator, single point] | – |
| COc1ccc(-c2cc(C(=O)Nc3c(Cl)cc(Cl)cc3Cl)c3ccccc3n2)cc1OC | inconclusive: 10.3 µM [activator, partial curve] | – |
| CC(COc1ccccc1)NC(C)C(O)c1ccc(O)cc1 (centres undefined) | inconclusive: 0.231 µM [activator, single point] | – |
| Cc1cc(C)cc(OCC(=O)OC/C(O)=C(\C#N)c2nc3ccccc3[nH]2)c1 | inconclusive: 23.1 µM [activator, single point] | – |
| CC1CCCN(C(=S)SCC(=O)O)C1 (centres undefined) | – | inactive: -2.28% |
| CCC(=O)N(CCc1ccc(S(N)(=O)=O)cc1)C1CC(=O)N(c2ccc(OC)cc2)C1=O (centres undefined) | – | inactive: -1.34% |
| CC1=Nc2cc(C(=O)N3CCCC3)ccc2Sc2c(C)ccc(C)c21 | – | inactive: 0.375% |
| C[C@]1(O)CC(=O)C=C[C@H]1Nc1ccccc1 | inconclusive: 1.84 µM [activator, full curve, poor fit] | – |
| N#Cc1ccc(CSC2=NCCN2)cc1 | inconclusive: 29.1 µM [activator, single point] | – |
| CCOc1cccc(-c2c(C(=O)N/N=C/c3cccs3)nnn2-c2nonc2N)c1 | inconclusive: 16.4 µM [activator, partial curve, poor fit] | – |
| Cn1nc(-c2ccc(Cl)cc2)c2cc(C(=O)NCCCN3CCCC3)sc21 | inconclusive: 29.1 µM [activator, single point] | – |
| O=C(N/N=C/c1cnc2ccccc2n1)c1cccc(F)c1 | inconclusive: 18.4 µM [activator, partial curve, poor fit] | – |
| CCC(=O)Nc1cccc(NC(=O)c2ccc(C)c([N+](=O)[O-])c2)c1 | – | inactive: 1.33% |
| O=[N+]([O-])c1ccc(N/N=C/c2cccc(O)c2)cc1 | inconclusive: 25.9 µM [activator, single point] | – |
| Cc1c(C(=O)O)sc2nc(/C=C/c3cccc(O)c3)[nH]c(=O)c12 | inconclusive: 16.4 µM [activator, single point] | – |
| Cc1ccc(C2=N/C(=C\c3cccc(F)c3)C(=O)O2)cc1 | – | inconclusive: 58.2% [activator] |
| O=C(c1ccc2c3n(nc2c1)-c1ccc(Cl)cc1CO3)N1CCOCC1 | – | inactive: -5.35% |

| Structure (SMILES) | Potency | re-replication activation |
| --- | --- | --- |
| O=C(NC1=CC(=O)c2ccccc2C1=O)c1ccccc1 | active: 5.8 µM | – |
| O=C(NCC12CC3CC(CC(C3)C1)C2)c1cc2n(n1)C(C(F)(F)F)CC(c1ccco1)N2 (centres undefined) | inconclusive: 15.8 µM [activator, single point] | – |
| CCOC(CNC(=O)CN1C(=O)COc2ccc(S(=O)(=O)N3CCCC3)cc21)OCC | – | inactive: -0.512% |
| Oc1[nH]c2ccccc2c1N=Nc1ccccn1 | – | inactive: -4.93% |
| Cc1ccc(C)c(Nc2cc(C)nc3ccccc23)c1 | inconclusive: 1.84 µM [activator, partial curve, poor fit] | – |
| O=C(COC(=O)CSc1cccc2cccc(Cl)c12)Nc1ncc(C(F)(F)F)cc1Cl | inconclusive: 2.06 µM [activator, single point] | – |
| COc1ccccc1CNC(=O)[C@H](C)NC(=O)C1CCN(C(=O)[C@@H]2CCCN2C(=O)OC(C)(C)C)CC1 | inconclusive: 0.366 µM [activator, partial curve, poor fit] | – |
| OCCCNc1c2ccccc2nc2ccccc12 | inconclusive: 3.26 µM [activator, single point] | – |
| Cc1c(C#N)c(O)n(CCO)c(=O)c1N=Nc1ccc2c(c1)COC2=O | – | inactive: 12.3% |
| O=C(NCc1ccc(Cl)cc1)c1cc2ccccc2oc1=O | – | inactive: -4.84% |
| Cc1cc(C)cc(-n2c(C)cc(/C=N/NC(=O)c3cccc([N+](=O)[O-])c3C)c2C)c1 | inconclusive: 29.1 µM [activator, single point] | – |
| O=C(Nc1cccc(S(=O)(=O)N2CCCC2)c1)c1ccncc1 | inconclusive: 1.3 µM [activator, partial curve] | – |
| CN(Nc1cccc(Cl)c1)c1cccc(Cl)c1 | inconclusive: 29.1 µM [activator, single point] | – |
| COc1cc(NC(=O)c2ccccc2)c(OC)cc1NC(=O)CSc1[nH]c(=O)cc(C)c1C#N | inconclusive: 9.2 µM [activator, partial curve] | – |
| Cn1c(=O)[nH]c(=O)c2c1nc(Br)n2CCCCSc1nc2ccccc2o1 | inconclusive: 29.1 µM [activator, single point] | – |
| Cc1cc(C)n(CC(=O)N2c3ccccc3Sc3ccc(C(F)(F)F)cc32)n1 | inconclusive: 29.1 µM [activator, single point] | – |
| COc1ccc2c(c1OC)C(=O)OC2N1C(=O)CC[C@H]1C(=O)NCC1CCCO1 (some centres undefined) | – | inactive: -2.63% |
| OCCN1CCN(c2nc(NCc3ccco3)c3ccccc3n2)CC1 | inconclusive: 23.1 µM [activator, partial curve, poor fit] | – |
| COc1cc(CN2CCc3ccc(NC(=O)CCc4ccccc4OC)cc3C2)ccc1O | inconclusive: 8.2 µM [activator, single point] | – |
| Cc1ccn2c(=O)nc(SCC(=O)Nc3cc(C)on3)nc2c1 | – | inactive: -8.3% |
| COc1ccc(Cl)cc1Nc1nc(N)c2ccccc2n1 | inconclusive: 14.6 µM [activator, partial curve, poor fit] | – |
| Cc1ncc(CO)c2c1Oc1nc(-c3ccccc3)nc(SCC(=O)N3CCCCC3)c1C2 | inconclusive: 20.6 µM [activator, single point] | – |
| O=C(CCC(=O)Nc1ccc(F)cc1)N/N=C/c1cc([N+](=O)[O-])ccc1O | inconclusive: 20.6 µM [activator, single point] | – |

Whole records, looked up by structure. Values in the order: Potency | re-replication activation
Cc1ccc(C)c(Nc2cc(C)nc3ccccc23)c1 in the list: inconclusive: 1.84 µM [activator, partial curve, poor fit] | –
CN(Nc1cccc(Cl)c1)c1cccc(Cl)c1 in the list: inconclusive: 29.1 µM [activator, single point] | –
